Experimental data from PubChem BioAssay AID192 (DTP/NCI, 2004).
The list does not hold the whole screen: it is rich in T/C values a quarter to a half above the control, in often repeated tests (any T/C) and in doses without a T/C. Other doses and runs of a compound stand elsewhere. T/C: endpoint of the treated group in % of that of the vehicle group. Some doses have a count of surviving animals in place of a T/C: the source holds a T/C of zero for them, seemingly a mark for toxic or unscored doses. Some doses without a T/C left all or most animals alive at the check, yet need not have been tolerated: the source hardly ever lists a survival T/C far under the control, and the zero likely stands for such cases as well. Counts of survivors are from the toxicity check (mostly the fifth day) where no day follows; animals may have died later. Schedules are NCI's codes, taken here to give the interval after Q, in days (D) or hours (H), and the number of doses after X. Marks such as (2×) say how often a value occurs here. For survival time, the PubChem record calls one and a half times the control and up active, and a quarter to a half above the control has no call in these data; cut-offs in other NCI protocols can differ. Some entries hold several experiments; their values stand side by side, smallest first. Some T/C values carry the count of animals alive at the toxicity check (mostly the fifth day); without a count, all were alive then.

Tested on: BDF1 mice, B16 melanoma ip, median survival T/C
Test: NCI In Vivo Anticancer Drug Screen. Data for tumor model B16 Melanoma (intraperitoneal) in B6D2F1 (BDF1) mice
Details: T/C endpoint: median survival time, higher T/C = longer survival
Summary of the method: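 In this screen, activity was judged from survival or tumor size in treated versus vehicle-treated tumor-bearing mice, reported as T/C.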

[1] = dose: 100.0 mg/kg/injection, schedule: Q01DX009 (ip), vehicle: Klucel (hydroxypropylcellulose) (HPC)
[2] = dose: 200.0 mg/kg/injection, schedule: Q01DX009 (ip), vehicle: Klucel (hydroxypropylcellulose) (HPC)
[3] = dose: 400.0 mg/kg/injection, schedule: Q01DX009 (ip), vehicle: Klucel (hydroxypropylcellulose) (HPC)
[4] = dose: 50.0 mg/kg/injection, schedule: Q01DX009 (ip), vehicle: saline with Tween-80
[5] = dose: 50.0 mg/kg/injection, schedule: Q01DX009 (ip), vehicle: Klucel (hydroxypropylcellulose) (HPC)
[6] = dose: 50.0 mg/kg/injection, schedule: Q04DX003 (ip), vehicle: Klucel (hydroxypropylcellulose) (HPC)
[7] = dose: 100.0 mg/kg/injection, schedule: Q04DX003 (ip), vehicle: Klucel (hydroxypropylcellulose) (HPC)
[8] = dose: 12.5 mg/kg/injection, schedule: Q01DX009 (ip), vehicle: Klucel (hydroxypropylcellulose) (HPC)
[9] = dose: 25.0 mg/kg/injection, schedule: Q01DX009 (ip), vehicle: Klucel (hydroxypropylcellulose) (HPC)
[10] = dose: 100.0 mg/kg/injection, schedule: Q01DX009 (ip), vehicle: saline with Tween-80
[11] = dose: 200.0 mg/kg/injection, schedule: Q04DX003 (ip), vehicle: saline with Tween-80
[12] = dose: 400.0 mg/kg/injection, schedule: Q04DX003 (ip), vehicle: saline with Tween-80
[13] = dose: 100.0 mg/kg/injection, schedule: Q01DX009 (ip), vehicle: saline
[14] = dose: 200.0 mg/kg/injection, schedule: Q01DX009 (ip), vehicle: saline
[15] = dose: 400.0 mg/kg/injection, schedule: Q01DX009 (ip), vehicle: saline
[16] = dose: 200.0 mg/kg/injection, schedule: Q01DX009 (ip), vehicle: saline with Tween-80
[17] = dose: 0.05 mg/kg/injection, schedule: Q01DX009 (ip), vehicle: saline

## Nc1nc(N)c2nc(CNc3ccc(C(=O)NC(CCC(=O)O)C(=O)O)cc3)cnc2n1 (stereo not drawn)
dose: 0.06 mg/kg/injection, schedule: Q01DX009 (ip), vehicle: saline with Tween-80
  survivor count: 6 of 6 (2×)
dose: 0.13 mg/kg/injection, schedule: Q01DX009 (ip), vehicle: saline with Tween-80
  survivor count: 6 of 6
dose: 0.5 mg/kg/injection, schedule: Q01DX009 (ip), vehicle: saline with Tween-80
  survivor count: 5 of 6

## c1ccc(-c2cc(-c3ccccc3)cc(-c3ccccc3)c2)cc1
[1]
  survivor count: 10 of 10
[2]
  survivor count: 9 of 10
[3]
  survivor count: 10 of 10

## COc1cccnc1/C=N/NC(N)=S
dose: 24.0 mg/kg/injection, schedule: Q01DX009 (ip), vehicle: saline with Tween-80
  survivor count: 0 of 10

## C[C@]12CCC(=O)C=C1CC[C@@H]1[C@@H]2C(=O)C[C@]2(C)C3=CC(=O)O[C@H]3C[C@@H]12
[4]
  survivor count: 10 of 10
[1]
  survivor count: 0 of 6
[2]
  survivor count: 0 of 6
[3]
  survivor count: 0 of 6

## CC1(CC(C)(C)C2CCCCC2)OCCO1
dose: 100.0 mg/kg/injection, schedule: Q01DX009 (ip), vehicle: other
  survivor count: 10 of 10

## C[C@@H]1C[C@H]2[C@@H]3CCC4=CC(=O)C=C[C@]4(C)[C@@]3(F)[C@@H](O)C[C@]2(C)[C@@]1(O)C(=O)CO
[1]
  survivor count: 10 of 10

## Cc1ccc(NCC2(/N=C/c3ccccc3)OC(CO)C(O)C2O)cc1 (stereo not drawn)
dose: 177.0 mg/kg/injection, schedule: Q01DX009 (ip), vehicle: Klucel (hydroxypropylcellulose) (HPC)
  T/C: 134 % of control
[2]
  survivor count: 5 of 10
dose: 266.0 mg/kg/injection, schedule: Q01DX009 (ip), vehicle: Klucel (hydroxypropylcellulose) (HPC)
  T/C: 137 % of control [9 of 10 alive]
[3]
  T/C: 141 % of control [8 of 10 alive]
  survivor count: 2 of 10
dose: 600.0 mg/kg/injection, schedule: Q01DX009 (ip), vehicle: Klucel (hydroxypropylcellulose) (HPC)
  survivor count: 8 of 10

## BrCCC[P+](c1ccccc1)(c1ccccc1)c1ccccc1
[5]
  survivor count: 4 of 10
[6]
  survivor count: 10 of 10
[7]
  survivor count: 8 of 10

## CS(=O)(=O)OCCN(CCOS(C)(=O)=O)c1ccc(C=Nc2ccc(-c3csc(Cc4ccccc4)n3)cc2)c(Cl)c1
[8]
  T/C: 128 % of control
[9]
  T/C: 132 and 142 % of control

## ClC[P+](c1ccccc1)(c1ccccc1)c1ccccc1
dose: 20.0 mg/kg/injection, schedule: Q01DX009 (ip), vehicle: saline
  survivor count: 0 of 10

## COc1cc2cc3c4ccccc4cc[n+]3c(C)c2cc1OC (tested in a mixture with another compound)
dose: 40.0 mg/kg/injection, schedule: Q01DX009 (ip), vehicle: Klucel (hydroxypropylcellulose) (HPC)
  survivor count: 9 of 10
dose: 80.0 mg/kg/injection, schedule: Q01DX009 (ip), vehicle: Klucel (hydroxypropylcellulose) (HPC)
  survivor count: 7 of 10

## COC1=CC(=O)C(OC)=C(OC)C1=O
[10]
  survivor count: 0 of 10

## Cc1c(C(=O)O)cc2n(c1=O)Cc1cc3ccccc3nc1-2
[11]
  survivor count: 10 of 10
[12]
  survivor count: 3 of 10

## COc1cccc(NC(=O)CCC(=O)O)c1
dose: 0.78 mg/kg/injection, schedule: Q01DX009 (ip), vehicle: Klucel (hydroxypropylcellulose) (HPC)
  survivor count: 10 of 10

## CC(C)C(=O)NNCc1ccccc1
[1]
  survivor count: 9 of 10

## CCCC(C)(COC(N)=O)COC(=O)NC(C)C (stereo not drawn)
[9]
  survivor count: 8 of 10
[5]
  survivor count: 7 of 10
[1]
  survivor count: 10 of 10
[2]
  survivor count: 10 of 10
[3]
  survivor count: 10 of 10

## CC1(C)N=C(N)N=C(N)N1c1ccc(Cl)c(Cl)c1
[8]
  survivor count: 9 of 10
[9]
  survivor count: 9 of 10
[5]
  survivor count: 8 of 10

## O=C1NC(=O)c2ccccc21
[13]
  survivor count: 10 of 10

## CN(C)/N=N/c1[nH]ncc1C(N)=O
dose: 100.0 mg/kg/injection, schedule: Q01DX009 (ip), vehicle: carboxymethylcellulose (CMC)
  survivor count: 3 of 6
dose: 200.0 mg/kg/injection, schedule: Q01DX009 (ip), vehicle: carboxymethylcellulose (CMC)
  survivor count: 6 of 6
dose: 400.0 mg/kg/injection, schedule: Q01DX009 (ip), vehicle: carboxymethylcellulose (CMC)
  survivor count: 5 of 6

## COc1ccc(N2C(=O)CC(Sc3ccccc3N)C2=O)cc1 (stereo not drawn)
[1]
  survivor count: 10 of 10
[2]
  survivor count: 9 of 10
[3]
  survivor count: 7 of 10

## O=C(O)c1[nH]c(=O)[nH]c(=O)c1N1CCCCC1
[7]
  survivor count: 2 of 10

## CN(C)N=Nc1ccc(C(=O)O)cc1
[13]
  survivor count: 10 of 10
[14]
  survivor count: 9 of 10
[15]
  survivor count: 1 of 10

## CCCCOc1ccc(NC(N)=Nc2ccc(Cl)cc2)cc1
[4]
  survivor count: 4 of 6

## CC(=O)Nc1ccc2c(ccc3ccccc32)c1
[16]
  survivor count: 10 of 10

## c1ccc2c(c1)[As]=c1ccccc1=[As]2 (stereo not drawn)
dose: 12.0 mg/kg/injection, schedule: Q01DX009 (ip), vehicle: saline with Tween-80
  survivor count: 9 of 10

## CN(C)N=C1CCCC1
dose: 25.0 mg/kg/injection, schedule: Q04DX003 (ip), vehicle: saline
  T/C: 127 % of control
dose: 50.0 mg/kg/injection, schedule: Q04DX003 (ip), vehicle: saline
  T/C: 127 % of control
dose: 100.0 mg/kg/injection, schedule: Q04DX003 (ip), vehicle: saline
  T/C: 127 % of control

## CCOC(=O)N1c2ccccc2C=CC1OCC (stereo not drawn)
[6]
  survivor count: 9 of 10
[7]
  survivor count: 7 of 10
dose: 100.0 mg/kg/injection, schedule: Q04DX003 (ip), vehicle: saline with Tween-80
  survivor count: 2 of 10
[11]
  survivor count: 0 of 10
[12]
  survivor count: 0 of 10

## CCCOC(=O)c1nc(N(CC2CCCCC2)C(=O)NC)sc1/N=C/c1ccccc1
[10]
  survivor count: 10 of 10
[16]
  survivor count: 10 of 10
dose: 400.0 mg/kg/injection, schedule: Q01DX009 (ip), vehicle: saline with Tween-80
  survivor count: 10 of 10

## O=C(NC(CSCc1ccccc1)C(=O)O)OCc1ccccc1 (stereo not drawn)
[16]
  survivor count: 9 of 10

## CCCCCCCCCCCC(c1ccccc1)[N+](C)(C)Cc1ccccc1 (stereo not drawn)
dose: 4.0 mg/kg/injection, schedule: Q01DX009 (ip), vehicle: saline sonified
  survivor count: 0 of 6

## COc1cccc(OC)c1C(c1c(OC)cccc1OC)c1c(OC)cccc1OC
dose: 12.5 mg/kg/injection, schedule: Q04DX003 (ip), vehicle: saline with Tween-80
  T/C: 132 % of control [9 of 10 alive]

## CNC1=C(N2CC2)C(=O)C(NC)=C(N2CC2)C1=O
dose: 0.02 mg/kg/injection, schedule: Q01DX009 (ip), vehicle: saline
  T/C: 128 % of control
[17]
  T/C: 129 % of control
  survivor count: 9 of 10
dose: 0.1 mg/kg/injection, schedule: Q01DX009 (ip), vehicle: saline
  survivor count: 10 of 10
dose: 0.2 mg/kg/injection, schedule: Q01DX009 (ip), vehicle: saline
  survivor count: 10 of 10
dose: 0.4 mg/kg/injection, schedule: Q01DX009 (ip), vehicle: saline
  survivor count: 10 of 10

## OCC12COCN1COC2
[15]
  T/C: 136 % of control

## CN(Cc1cnc2nc(N)nc(N)c2n1)c1c(Cl)cc(C(=O)NC(CCC(=O)O)C(=O)O)cc1Br (stereo not drawn)
dose: 100.0 mg/kg/injection, schedule: Q01DX011 (ip), vehicle: saline
  survivor count: 10 of 10

## CN(C)CCN1C(=O)c2cccc3cc(N)cc(c23)C1=O
dose: 32.0 mg/kg/injection, schedule: Q01DX009 (ip), vehicle: acid diluted with saline
  survivor count: 9 of 10

## Nc1ncnc(N)c1N=O
[14]
  T/C: 126 % of control
